Laboratory results: PubChem BioAssay AID1159584 (Peter MacCallum Cancer Centre, 2016)

Test: 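Genes whose loss is lethal only together with E-cadherin loss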 (primary screen)
System: human MCF10A breast epithelial cells, parental and CDH1-null
Reagent: siRNA against human genes
Measurement: 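ATP luminescence (CellTiter-Glo) viability per line relative to mean mock wells over all plates, and the ratio of CDH1-null to parental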
Direction: CDH1-null / parental viability ratio: higher = CDH1-null cells survive relatively better than parental; CDH1-null viability vs mock: higher = more viable CDH1-null cells; parental viability vs mock: higher = more viable parental cells
The whole screen tested about 18,000 reagents; shown is a random part of them. The record does not give: the amount of reagent, the time to read-out.

target gene,PubChem SID,CDH1-null / parental viability ratio,CDH1-null viability vs mock (fraction of mock),parental viability vs mock (fraction of mock)
PLEKHG5,SID152155659,0.91,0.8,0.88
TTBK1,SID135620866,1.55,1.02,0.66
RNF217,SID134312268,0.92,0.94,1.02
FOXG1,SID134322933,0.94,0.94,1
HSP90AA1,SID152151429,1,1.02,1.02
NAT8,SID152151497,0.97,0.74,0.76
MRPL4,SID134321405,1.49,0.76,0.51
LCN10,SID135625121,1.27,0.98,0.77
TTLL6,SID152147177,0.75,0.5,0.67
CIBAR2,SID134326831,0.8,0.82,1.02
AKAP10,SID135623305,1.08,1.06,0.98
ZFAND3,SID134313437,1.04,0.85,0.82
AGGF1,SID134324723,1.12,0.9,0.8
PLAU,SID152155938,1.18,0.93,0.79
OR4A16,SID134329894,0.86,0.65,0.76
IDH2,SID134310230,0.75,0.76,1.02
QRICH2,SID134318888,1.07,0.62,0.58
MPI,SID152152697,1.22,1.12,0.92
CD300C,SID152151167,1.61,0.79,0.49
MEX3A,SID152153694,0.98,0.98,1
TAT,SID134313214,0.98,0.93,0.95
SERPINA13P,SID152156423,1.09,0.94,0.86
SIPA1L3,SID152146949,0.71,0.4,0.56
LPIN3,SID135625201,1.02,0.64,0.63
LORICRIN,SID135622049,1,0.85,0.85
GRM2,SID135621034,0.72,0.57,0.79
TM6SF1,SID152146997,0.65,0.41,0.63
SHROOM3,SID152149435,0.97,1.08,1.11
HCFC1R1,SID152148864,0.85,0.41,0.48
BCL11B,SID135620932,1.08,0.93,0.86
ZYX,SID152155015,0.95,0.8,0.84
PRELID3A,SID134323892,1.16,0.89,0.77
EIF1,SID152148384,1.04,0.8,0.77
ALDH1A2,SID134313044,0.96,0.94,0.98
ZFAND1,SID134314367,0.93,0.54,0.58
PTEN,SID152153158,1.15,0.76,0.66
PCDHA7,SID134317486,1.24,0.89,0.72
ATP5F1A,SID152156209,0.82,0.97,1.19
NEURL1,SID134320695,0.77,0.58,0.75
PPP1R36,SID134320856,1.07,0.64,0.6
SLC22A8,SID135621374,0.78,0.72,0.92
CDKAL1,SID152150065,0.73,0.61,0.84
TMEM9B,SID134324356,0.95,0.36,0.38
EFCAB3,SID152152830,0.94,0.9,0.96
MAEL,SID134319091,1.05,0.98,0.93
KNL1,SID152149366,0.88,0.6,0.68
PABIR3,SID152147911,0.88,0.68,0.77
SLC26A11,SID135621387,0.9,1.01,1.12
CLTB,SID134310220,0.84,0.36,0.43
NABP2,SID134318454,0.94,0.92,0.98
UNC5D,SID134319333,0.88,0.66,0.75
NAPG,SID134315858,0.96,1.07,1.12
MAMSTR,SID134322540,1.21,0.94,0.78
SCAMP4,SID152147579,1.22,1.12,0.92
CXorf66,SID152150453,1.11,0.91,0.82
CYP2E1,SID152156210,1.05,1.05,1
PABIR1,SID134319537,0.81,0.73,0.9
WASHC3,SID152155860,1.21,0.91,0.75
SMPDL3B,SID135621894,0.86,1.02,1.18
CISD1,SID152149408,1.08,0.93,0.86
PCDHGA11,SID134317524,0.74,0.61,0.82
ERCC2,SID134315391,1,0.96,0.96
ILDR2,SID134329254,0.9,0.92,1.02
PRNT,SID134322176,1.12,0.58,0.52
MAP3K14,SID135620705,0.96,0.76,0.79
CEACAM1,SID152147499,1.12,0.96,0.86
DOC2A,SID152153800,0.98,0.81,0.83
FASN,SID134310189,0.87,0.61,0.7

4 entries from above, reformatted:
target gene	PubChem SID	CDH1-null / parental viability ratio	CDH1-null viability vs mock (fraction of mock)	parental viability vs mock (fraction of mock)
NAT8	SID152151497	0.97	0.74	0.76
MRPL4	SID134321405	1.49	0.76	0.51
LCN10	SID135625121	1.27	0.98	0.77
TTLL6	SID152147177	0.75	0.5	0.67
